The target in assay [1] is T1, HisSbp1FLAG (recombinant) (yeast) (UniProt P10080).
T1 sequence: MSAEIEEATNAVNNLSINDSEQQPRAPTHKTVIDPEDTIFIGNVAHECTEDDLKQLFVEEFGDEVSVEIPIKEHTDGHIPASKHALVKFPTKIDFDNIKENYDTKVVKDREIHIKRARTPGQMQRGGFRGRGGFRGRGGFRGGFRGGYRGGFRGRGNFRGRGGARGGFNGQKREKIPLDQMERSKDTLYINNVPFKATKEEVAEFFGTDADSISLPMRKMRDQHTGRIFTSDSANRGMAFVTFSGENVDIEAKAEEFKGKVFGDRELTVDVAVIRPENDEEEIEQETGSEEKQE
The assay can be described thus: pull-down; FLAG pull-down of purified Sbp1FLAG with purified Sbp1GFP or Sbp1GFPΔRGG in the presence of RNase A; 450 nM proteins; blots with anti-GFP and anti-FLAG; both purified.

Assay [2] deals with T2, GSTScd6 (recombinant) (yeast) (UniProt P45978).
T2 sequence: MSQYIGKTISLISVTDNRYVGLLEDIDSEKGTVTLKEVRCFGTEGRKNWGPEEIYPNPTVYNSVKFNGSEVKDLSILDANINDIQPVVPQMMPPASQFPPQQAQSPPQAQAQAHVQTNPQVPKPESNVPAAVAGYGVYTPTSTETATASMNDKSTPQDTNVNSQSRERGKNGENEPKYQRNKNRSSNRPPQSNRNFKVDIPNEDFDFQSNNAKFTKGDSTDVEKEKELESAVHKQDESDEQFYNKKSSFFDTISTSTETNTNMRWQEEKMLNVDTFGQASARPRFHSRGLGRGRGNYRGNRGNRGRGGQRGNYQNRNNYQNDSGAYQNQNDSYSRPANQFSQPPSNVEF
The assay can be described thus: pull-down; 450 nM purified proteins with glutathione sepharose beads, 2 h at 4°C, 50mM HEPES pH7, 100mM NaCl, 1mM DTT, 2mM MnCl2, 2mM MgCl2, 1% Triton-X100, 10% glycerol, 0.25mg/ml RNase A, 10mg/ml BSA; GST fusion as bait; anti-FLAG blot; for Figure 5e Scd6FLAG first incubated with Hmt1 with or without SAM; both purified.

Assay [3] deals with T3, Sbp1GST (chromosomally encoded) (yeast) (UniProt P10080).
T3 sequence: T1 sequence
Kind of assay: pull-down; Glutathione pull-down of chromosomally encoded Sbp1GST from yeast lysate of cells expressing galactose-inducible Sbp1 or Sbp1∆RGG; wild type and ∆HMT1 cells; blot with anti-GST and PAP antibody.

Assay [4] concerns the target GSToRGG (GST tagged only RGG motif of Scd6) (yeast). Kind of assay: pull-down; 450 nM purified proteins with glutathione sepharose beads, 2 h at 4°C, 50mM HEPES pH7, 100mM NaCl, 1mM DTT, 2mM MnCl2, 2mM MgCl2, 1% Triton-X100, 10% glycerol, 0.25mg/ml RNase A, 10mg/ml BSA; GST fusion as bait; anti-FLAG blot; for Figure 5e Scd6FLAG first incubated with Hmt1 with or without SAM; both purified.

These are yes or no findings as the source states them, for the method shown. For some of these results: A result given as binding can be weak or reduced; the word gives no strength. Sequences can lack the tags named with a protein. For some of these results: In cells and extracts the contact can be indirect.

For “Sbp1GFPΔRGG (recombinant) (yeast) (domain or fragment)”, the binding result in assay [1] is recorded as “no binding (tested: 450 nM)”.

Regarding “Scd6ΔRGGFLAG (recombinant) (yeast) (domain or fragment)”, the binding result in assay [2] was “no binding (tested: 450 nM)”.

For “galactose-inducible Sbp1∆RGG (on plasmid, in yeast) (domain or fragment)”, the binding entry in assay [3] is “no binding”.

B1: HisScd6FLAG (recombinant) (natural protein, yeast, UniProt P45978 1-349, looked up)
chain: T2 sequence
notes: Scd6, yeast; predicted molecular mass of the purified protein about 41.5 kDa; also called purified Scd6; source: E. coli BL21, purified (HisTrap HP, HiTrap Heparin HP)
For the molecule B1, the binding result in assay [4] is on record as “binds”.
